From patent publication US20200276174A1, “CYCLIN-DEPENDENT KINASE INHIBITORS IN COMBINATION WITH ANTHRACYCLINES FOR TREATMENT OF CANCER” (TOLERO PHARMACEUTICALS, INC., priority 2018, published 2020)
At least one compound was matched to its structure with a doubt left.

Tested on: MCL-1 expression in MV4-11 cells
Assay: MCL-1 expression during the alvocidib+cytarabine+daunorubicin regimen modeled in vitro
Assay type: cell-based
Conditions: palbociclib 1 μM, washed out prior to cytarabine addition
Procedure: MCL-1 expression during the alvocidib+cytarabine+daunorubicin regimen was modeled in vitro. MV4-11 cells were treated with alvocidib (80 nM), cytarabine (100 nM), or daunorubicin (3 nM), in the sequence shown. Alvocidib (or palbociclib) was washed out prior to cytarabine addition.

Q: With `CC(=O)c1c(C)c2cnc(Nc3ccc(N4CCNCC4)cn3)nc2n(C2CCCC2)c1=O` [palbociclib] as the compound, how does the MCL-1 expression read?
A: Its MCL-1 expression is “did not achieve this same MCL-1 knockdown”.
